From PubChem BioAssay AID1347076 (National Center for Advancing Translational Sciences (NCATS), 2019)
About 13,000 (3.2%) of roughly 400,000 compounds were called active. This list was built around the results that the source calls inconclusive (neither active nor inactive); the mix of calls is not that of the screen. The call rests on the fitted dose curve; in most records, active means well fitted cell-killing curve with a large enough effect; inconclusive means small, poorly fitted or top-dose-only effect, or effect the other way; inactive means flat fitted curve, though single readings scatter. Potencies beside an inconclusive call are fits to weak or partial responses and may not hold up.

Assay: qHTS assay for MDR1-selective chemotherapeutics: Primary screen using the drug-selected MDR subline cells KB-V1; further: nearly all actives have a fitted effect of over 60% in size
Settings: KB-V1 MDR cells viability, CellTiter-Glo, 72 h; activity change, negative = cytotoxicity: at 46.1 µM (top of the series)
How it was run: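 Following 72 h at 37 degrees C with compound, KB-V1 cell viability was read by CellTiter-Glo luminescence, medium being phenol-red-free DMEM plus 10% FBS; concentration-response parameters came from normalized, curve-fitted qHTS data.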
On the % scale 0 is the no-effect control and ±100 the full control effect; potency means the concentration at half of the fitted maximal effect.

Structure (SMILES) | Potency | activity change, negative = cytotoxicity
CC1(c2nnnn2-c2ccc3c(c2)OCCO3)CCC(=O)N1CCc1ccccc1F (centres undefined) | inconclusive: 18.4 µM [cytotoxic, single point] | 
CCC(Sc1nnnn1-c1ccccc1)C(=O)NC(C)c1ccccc1 (centres undefined) | active: 5.8 µM | 
O=C(Nc1cccc(Oc2ccccc2)c1)C1Cc2c(-c3ccco3)ccnc2O1 (centres undefined) | inconclusive: 29.1 µM [cytotoxic, single point] | 
O=C(NCC(c1cccs1)N1CCOCC1)C1CCN(S(=O)(=O)c2ccccc2C(F)(F)F)CC1 (centres undefined) |  | inconclusive: -13.6%
COc1cccc(-c2nc(N3CCCCC3)c3ccccc3n2)c1O | inconclusive: 25.9 µM [cytotoxic, single point] | 
COc1cccc(Nc2nc(N)nc(-c3oc4ccccc4c3C)n2)c1 | active: 4.61 µM | 
Oc1ccc(O)c(-c2cnns2)c1 | inconclusive: 23.1 µM [rising, partial curve] | 
COc1cccc(NC(=O)Cn2c(=O)n(Cc3ccccc3)c(=O)c3c2c2cc(C)ccc2n3C)c1 |  | inactive: 0%
CCCOc1ccc(-c2nc(C#N)c(N3CCC(C(N)=O)CC3)o2)cc1 | active: 23.1 µM | 
CC(O)(c1cccc(F)c1)c1nc(-c2ccc(S(C)(=O)=O)cc2)cs1 (centres undefined) |  | inactive: -20.2%
CC(C)NC(=O)NC(=O)COC(=O)c1ncc(Cl)c(Cl)c1Cl | inconclusive: 29.1 µM [rising, single point] | 
CC(=O)N1CCc2ccc(NC(=O)c3c(-c4c(Cl)cccc4Cl)noc3C)cc21 | inconclusive: 18.4 µM [cytotoxic, single point] | 
CCN(CC(=O)NCc1ccc(F)cc1)C(=O)C1CCN(S(=O)(=O)c2ccc(C(C)C)cc2)CC1 | inconclusive: 10.3 µM [cytotoxic, partial curve] | 
CC1(C(=O)NCc2ccccn2)CCN1C(=O)Cc1ccc(Cl)cc1Cl (centres undefined) | inconclusive: 18.4 µM [cytotoxic, single point] | 
CN(C)c1ccc(C2CC(c3c(O)n(C4CCCCC4)c(=O)[nH]c3=O)=Nc3ccccc3S2)cc1 (centres undefined) |  | inactive: 4.58%
Cc1ccc(-c2nnn(CC(=O)NC3CCN(Cc4ccccc4)CC3)n2)cc1 | inconclusive: 23.1 µM [cytotoxic, partial curve, poor fit] | 
COc1ccc(NS(=O)(=O)c2cccc(C(=O)NNC(=O)c3ccc(=O)[nH]c3)c2)cc1 | inconclusive: 29.1 µM [rising, single point] | 
CCC(C(=O)Nc1cccnc1)n1c(=O)[nH]c2ccccc2c1=O (centres undefined) | inconclusive: 13 µM [rising, partial curve, poor fit] | 
CCCCNC(=S)Nc1ccc2nc3n(c(=O)c2c1)CCCCC3 | inconclusive: 29.1 µM [cytotoxic, single point] | 
O=C(Nc1ccc([N+](=O)[O-])cc1Cl)c1cc(Cl)ccc1O | active: 1.03 µM | 
O=C(Nc1ccccc1N1CCCC1)C1CCN(S(=O)(=O)c2ccc(F)cc2)CC1 | active: 8.2 µM | 
COc1cc(OC)c(OC)cc1/C=C/C(=O)OCC(=O)Nc1c(C)n(C)n(-c2ccccc2)c1=O |  | inactive: 7.56%

Structure (SMILES) | Potency | activity change, negative = cytotoxicity
COC(=O)C1(Cc2ccc(O)c(CC3OC3(C)C)c2)OC(=O)C(O)=C1c1ccc(O)cc1 (centres undefined) | inconclusive: 16.4 µM [rising, single point] | 
Cn1c(CCNC(=O)c2ccccc2)nc2cc(NC(=O)c3ccco3)ccc21 | active: 16.4 µM | 
CC1CCCN(C(=O)Cn2c(-c3nonc3N)nc3ccccc32)C1 (centres undefined) | active: 7.31 µM | 
Nc1nc(Nc2ccccc2)nc(NCc2ccccc2)c1[N+](=O)[O-] | inconclusive: 29.1 µM [cytotoxic, single point] | 
O=C(O)CN1C(=O)c2ccc(Oc3ccc([N+](=O)[O-])cc3)cc2C1=O | inconclusive: 29.1 µM [rising, single point] | 
CCOc1ccccc1C(=O)N1CCN(c2ccc(C(F)(F)F)cn2)CC1 | inconclusive: 23.1 µM [cytotoxic, single point] | 
CCc1ccc2c(c1)[C@H]1OCC[C@H]1[C@@H](c1cccs1)N2 | inconclusive: 8.2 µM [cytotoxic, partial curve, poor fit] | 
COc1cc(OC)c(OC)cc1CN1CCc2nc(N3CCN(c4ccccc4F)CC3)ncc2C1 | inconclusive: 4.61 µM [cytotoxic, full curve] | 
CSc1ncccc1C(=O)Nc1nnc(C2CC2)s1 |  | inactive: -3.43%
N#Cc1cccc(NC(=O)CNc2cccc(S(=O)(=O)N3CCCC3)c2)c1 |  | inactive: -15.3%
Oc1c(C(c2ccccn2)N2CCCCC2)cc(Cl)c2cccnc12 (centres undefined) | inconclusive: 6.51 µM [cytotoxic, full curve] | 
C[C@@H]1CN([C@@H](C)CO)C(=O)CCCn2nncc2CO[C@@H]1CN(C)S(=O)(=O)c1cccc(F)c1 | inconclusive: 23.1 µM [rising, single point] | 
CN(CC(=O)Nc1cccc(F)c1)CC(=O)Nc1ccccc1[N+](=O)[O-] | inconclusive: 6.51 µM [cytotoxic, partial curve] | 
Cc1nc(N2CCN(C(=O)c3ccco3)CC2)c2oc3ccccc3c2n1 | inconclusive: 32.6 µM [cytotoxic, partial curve, poor fit] | 
O=C(CCC(=O)c1ccccc1)Nc1ccccc1OC(F)F | inconclusive: 2.91 µM [cytotoxic, partial curve, poor fit] | 
COc1cc(OC)c(OC)cc1CN(C)C(c1ccccc1)c1nnnn1-c1ccccc1C (centres undefined) | inconclusive: 20.6 µM [cytotoxic, single point] | 
O=C(CSc1n[nH]c(-c2cccnc2)n1)Nc1ccc([N+](=O)[O-])cc1Br | inconclusive: 32.6 µM [cytotoxic, partial curve, poor fit] | 
CCN1C(=O)[C@H]2[C@H]3CN=C(SCC(=O)c4ccccc4)N3[C@@](C)(C(=O)OC)[C@H]2C1=O | inconclusive: 29.1 µM [rising, partial curve, poor fit] | 
CCN(CC)c1ccc(NC(=O)c2cccnc2)cc1 | inconclusive: 20.6 µM [cytotoxic, single point] | 
Cc1ccc(-c2csc(Nc3ccccc3)[n+]2CCc2ccccc2)cc1 | inconclusive: 11.6 µM [cytotoxic, partial curve] | 
Cc1cccc(C(=O)NCC(=O)N2CCCC2)c1 | inconclusive: 32.6 µM [rising, single point] | 
O=C(/C=C/c1ccccc1)NC(NC(=S)Nc1cccc(O)c1)C(Cl)(Cl)Cl (centres undefined) | inconclusive: 9.2 µM [cytotoxic, partial curve, poor fit] | 

Structure (SMILES) | Potency | activity change, negative = cytotoxicity
COc1ccc(/C=C/C(=O)c2c(O)cc(C)oc2=O)c(OC)c1 | inconclusive: 23.1 µM [cytotoxic, single point] | 
O=C(CC1C(=O)NCCN1Cc1ccc(Cl)c(F)c1)NC1CCC1 (centres undefined) | inconclusive: 20.6 µM [rising, partial curve] | 
Cc1c(C(=O)OC2CCCCC2)[nH]c2c1C(=O)CC(c1ccccc1)C2 (centres undefined) | inconclusive: 3.26 µM [cytotoxic, partial curve, poor fit] | 
Cc1occc1C(=O)NC1CCCN(Cc2ccc(Cl)cc2)C1 (centres undefined) | inconclusive: 9.2 µM [cytotoxic, partial curve, poor fit] | 
Cc1nc2c3cc(F)ccc3n(Cc3ccccc3F)c2s1 | inconclusive: 18.4 µM [cytotoxic, partial curve, poor fit] | 
Cc1ccccc1S(=O)(=O)Oc1ccc2ccc(O)cc2c1 | inconclusive: 29.1 µM [cytotoxic, single point] | 
CCN(CC)c1ccc(C(=O)Nc2ccc3nc(N(CC)CC)cc(C)c3c2)cc1 | inconclusive: 18.4 µM [cytotoxic, single point] | 
CCOC(=O)c1ccc(NC(=O)CCn2c(=O)oc3ccccc32)cc1 | inconclusive: 18.4 µM [cytotoxic, partial curve, poor fit] | 
CCOC(=O)CNC(=O)CC(c1cc(OC)c(OC)c(OC)c1)N1Cc2ccccc2C1=O (centres undefined) | inconclusive: 29.1 µM [rising, single point] | 
C(=N\N1CCN(Cc2cccc3ccccc23)CC1)/c1cccnc1 | inconclusive: 13 µM [cytotoxic, partial curve] | 
Cc1ccccc1NCc1nnc2n1CCCCC2 | inconclusive: 0.206 µM [cytotoxic, full curve] | 
CCc1noc(C)c1C(=O)OCC(=O)NC(=O)c1ccccc1OC | inconclusive: 16.4 µM [rising, single point] | 
Cn1c(=O)oc2cc(S(=O)(=O)N3CCCCC3)ccc21 |  | inactive: -12.7%
COc1ccccc1N(CC(=O)Nc1ccccc1C(=O)NCC(C)C)S(C)(=O)=O | inconclusive: 9.2 µM [cytotoxic, partial curve] | 
CCOC(=O)CCC(=O)N(CCN(C(=O)CCC(=O)OCC)c1ccccc1)c1ccccc1 | inconclusive: 11.6 µM [cytotoxic, partial curve, poor fit] | 
Cc1ccc(S(=O)(=O)N(CC(=O)NCc2ccncc2)Cc2ccc(F)cc2)cc1 | inconclusive: 4.61 µM [cytotoxic, full curve] | 
COc1ccc(C(=O)NCC(=O)N/N=C/c2cccc(OC(=O)c3ccco3)c2)cc1OC | inconclusive: 23.1 µM [rising, single point] | 
COc1c(Cl)cnn(-c2ccccc2)c1=O | inconclusive: 18.4 µM [rising, partial curve, poor fit] | 
O=C(CNC1CCCCC1)NN=C(c1ccccc1)c1ccccc1 | inconclusive: 18.4 µM [cytotoxic, single point] | 
CCOC(=O)c1c(CSc2ccc(CC)cc2)oc2ccc(O)c(CN(C)C)c12 | inconclusive: 20.6 µM [cytotoxic, partial curve, poor fit] | 

Three of the compounds above, in markdown:

| Structure (SMILES) | Potency | activity change, negative = cytotoxicity |
| --- | --- | --- |
| Cn1c(=O)oc2cc(S(=O)(=O)N3CCCCC3)ccc21 |  | inactive: -12.7% |
| COc1ccccc1N(CC(=O)Nc1ccccc1C(=O)NCC(C)C)S(C)(=O)=O | inconclusive: 9.2 µM [cytotoxic, partial curve] |  |
| CCOC(=O)CCC(=O)N(CCN(C(=O)CCC(=O)OCC)c1ccccc1)c1ccccc1 | inconclusive: 11.6 µM [cytotoxic, partial curve, poor fit] |  |
